# Test results as given in the supplement of paper PMC8728848.
# Some of the results follow.
# B1: MUB70 (Lactobacillus reuteri) (protein)
# chain: CVHVQYIDGETDQMLRQDDLDGYTDETIPYSTAEGIKKFEGDGYELFKDNFPAGEKFDNDDTNDQFYTVIF
# Legend:
# Assay in all cases: glycan array binding signal (z-score within array); higher = stronger binding
# Conditions in all cases: glycan notation: IUPAC condensed, linker removed
# [1] = biological target: Neu5Ac(a2-3)Gal
# Procedure, shortened: (§1)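 The binding signal is a Z-score computed within each array. Data were drawn from 3228 arrays in the Consortium for Functional Glycomics database, restricted to those with a known protein sequence. Scores were averaged over arrays of the same protein sequence at different concentrations or buffers, and over linkers, and negative values can be taken as non-binding.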
# [2] = biological target: Neu5Ac(a2-3)Gal(b1-3)GalNAc
# Procedure, shortened: as §1
# [3] = biological target: Neu5Ac(a2-3)Gal(b1-3)GalNAc(b1-3)Gal(a1-4)Gal(b1-4)Glc
# Procedure, shortened: as §1
# [4] = biological target: Neu5Ac(a2-3)Gal(b1-3)GalNAc(b1-4)Gal(b1-4)Glc
# Procedure, shortened: as §1
# [5] = biological target: Neu5Ac(a2-3)Gal(b1-3)GalNAc(b1-4)[Neu5Ac(a2-3)]Gal(b1-4)Glc
# Procedure, shortened: as §1
# [6] = biological target: Neu5Ac(a2-3)Gal(b1-3)GalNAc(b1-4)[Neu5Ac(a2-8)Neu5Ac(a2-3)]Gal(b1-4)Glc
# Procedure, shortened: as §1
# [7] = biological target: Neu5Ac(a2-3)Gal(b1-3)GalNAc6S
# Procedure, shortened: as §1
# [8] = biological target: Neu5Ac(a2-3)Gal(b1-3)GlcNAc
# Procedure, shortened: as §1
# [9] = biological target: Neu5Ac(a2-3)Gal(b1-3)GlcNAc(b1-2)Man
# Procedure, shortened: as §1
# [10] = biological target: Neu5Ac(a2-3)Gal(b1-3)GlcNAc(b1-2)Man(a1-3)[GlcNAc(b1-4)][Neu5Ac(a2-3)Gal(b1-3)GlcNAc(b1-2)Man(a1-6)]Man(b1-4)GlcNAc(b1-4)GlcNAc
# Procedure, shortened: as §1
# [11] = biological target: Neu5Ac(a2-3)Gal(b1-3)GlcNAc(b1-2)Man(a1-3)[Neu5Ac(a2-3)Gal(b1-3)GlcNAc(b1-2)Man(a1-6)]Man(b1-4)GlcNAc(b1-4)GlcNAc
# Procedure, shortened: as §1
# [12] = biological target: Neu5Ac(a2-3)Gal(b1-3)GlcNAc(b1-2)[Neu5Ac(a2-3)Gal(b1-3)GlcNAc(b1-4)]Man(a1-6)[Neu5Ac(a2-3)Gal(b1-3)GlcNAc(b1-2)Man(a1-3)]Man(b1-4)GlcNAc(b1-4)GlcNAc
# Procedure, shortened: as §1
# [13] = biological target: Neu5Ac(a2-3)Gal(b1-3)GlcNAc(b1-3)Gal(b1-3)GlcNAc
# Procedure, shortened: as §1
# [14] = biological target: Neu5Ac(a2-3)Gal(b1-3)GlcNAc(b1-3)Gal(b1-4)GlcNAc
# Procedure, shortened: as §1
# [15] = biological target: Neu5Ac(a2-3)Gal(b1-3)GlcNAc(b1-3)GalNAc
# Procedure, shortened: as §1
# [16] = biological target: Neu5Ac(a2-3)Gal(b1-3)GlcNAc(b1-6)GalNAc
# Procedure, shortened: as §1
# [17] = biological target: Neu5Ac(a2-3)Gal(b1-3)GlcNAc6S
# Procedure, shortened: as §1
# [18] = biological target: Neu5Ac(a2-3)Gal(b1-3)[Fuc(a1-4)]GlcNAc
# Procedure, shortened: as §1
# [19] = biological target: Neu5Ac(a2-3)Gal(b1-3)[Fuc(a1-4)]GlcNAc(b1-3)Gal(b1-3)[Fuc(a1-4)]GlcNAc
# Procedure, shortened: as §1
# [20] = biological target: Neu5Ac(a2-3)Gal(b1-3)[Fuc(a1-4)]GlcNAc(b1-3)Gal(b1-4)[Fuc(a1-3)]GlcNAc
# Procedure, shortened: as §1
# [21] = biological target: Neu5Ac(a2-3)Gal(b1-3)[GlcNAc(b1-6)]GalNAc
# Procedure, shortened: as §1
# [22] = biological target: Neu5Ac(a2-3)Gal(b1-3)[Neu5Ac(a2-6)]GalNAc
# Procedure, shortened: as §1
# [23] = biological target: Neu5Ac(a2-3)Gal(b1-3)[Neu5Ac(a2-6)]GlcNAc(b1-3)[Fuc(a1-3)[Gal(b1-4)]GlcNAc(b1-6)]Gal(b1-4)Glc
# Procedure, shortened: as §1
# [24] = biological target: Neu5Ac(a2-3)Gal(b1-3)]Neu5Ac(a2-3)Gal(b1-4)]GlcNAc
# Procedure, shortened: as §1
# [25] = biological target: Neu5Ac(a2-3)Gal(b1-4)Glc
# Procedure, shortened: as §1
# [26] = biological target: Neu5Ac(a2-3)Gal(b1-4)GlcNAc
# Procedure, shortened: as §1
# [27] = biological target: Neu5Ac(a2-3)Gal(b1-4)GlcNAc(b1-2)Man
# Procedure, shortened: as §1
# [28] = biological target: Neu5Ac(a2-3)Gal(b1-4)GlcNAc(b1-2)Man(a1-3)[GlcNAc(b1-4)][Neu5Ac(a2-3)Gal(b1-4)GlcNAc(b1-2)Man(a1-6)]Man(b1-4)GlcNAc(b1-4)GlcNAc
# Procedure, shortened: as §1
# [29] = biological target: Neu5Ac(a2-3)Gal(b1-4)GlcNAc(b1-2)Man(a1-3)[Neu5Ac(a2-3)Gal(b1-4)GlcNAc(b1-2)Man(a1-6)]Man(b1-4)GlcNAc(b1-4)GlcNAc
# Procedure, shortened: as §1
# [30] = biological target: Neu5Ac(a2-3)Gal(b1-4)GlcNAc(b1-2)Man(a1-3)[Neu5Ac(a2-3)Gal(b1-4)GlcNAc(b1-2)Man(a1-6)]Man(b1-4)GlcNAc(b1-4)[Fuc(a1-6)]GlcNAc
# Procedure, shortened: as §1
# [31] = biological target: Neu5Ac(a2-3)Gal(b1-4)GlcNAc(b1-2)Man(a1-3)[Neu5Ac(a2-6)Gal(b1-4)GlcNAc(b1-2)Man(a1-6)]Man(b1-4)GlcNAc(b1-4)GlcNAc
# Procedure, shortened: as §1
# [32] = biological target: Neu5Ac(a2-3)Gal(b1-4)GlcNAc(b1-2)[Neu5Ac(a2-3)Gal(b1-4)GlcNAc(b1-4)]Man(a1-3)[GlcNAc(b1-4)][Neu5Ac(a2-3)Gal(b1-4)GlcNAc(b1-2)[Neu5Ac(a2-3)Gal(b1-4)GlcNAc(b1-6)]Man(a1-6)]Man(b1-4)GlcNAc(b1-4)GlcNAc
# Procedure, shortened: as §1
# [33] = biological target: Neu5Ac(a2-3)Gal(b1-4)GlcNAc(b1-2)[Neu5Ac(a2-3)Gal(b1-4)GlcNAc(b1-4)]Man(a1-3)[GlcNAc(b1-4)][Neu5Ac(a2-3)Gal(b1-4)GlcNAc(b1-4)Man(a1-6)]Man(b1-4)GlcNAc(b1-4)GlcNAc
# Procedure, shortened: as §1
# [34] = biological target: Neu5Ac(a2-3)Gal(b1-4)GlcNAc(b1-2)[Neu5Ac(a2-3)Gal(b1-4)GlcNAc(b1-6)]Man(a1-6)[Neu5Ac(a2-3)Gal(b1-4)GlcNAc(b1-2)Man(a1-3)][GlcNAc(b1-4)]Man(b1-4)GlcNAc(b1-4)GlcNAc
# Procedure, shortened: as §1
# [35] = biological target: Neu5Ac(a2-3)Gal(b1-4)GlcNAc(b1-3)Gal
# Procedure, shortened: as §1
# [36] = biological target: Neu5Ac(a2-3)Gal(b1-4)GlcNAc(b1-3)Gal(b1-3)GlcNAc
# Procedure, shortened: as §1
# [37] = biological target: Neu5Ac(a2-3)Gal(b1-4)GlcNAc(b1-3)Gal(b1-4)GlcNAc
# Procedure, shortened: as §1
# [38] = biological target: Neu5Ac(a2-3)Gal(b1-4)GlcNAc(b1-3)Gal(b1-4)GlcNAc(b1-2)Man(a1-3)[Neu5Ac(a2-3)Gal(b1-4)GlcNAc(b1-3)Gal(b1-4)GlcNAc(b1-2)Man(a1-6)]Man(b1-4)GlcNAc(b1-4)GlcNAc
# Procedure, shortened: as §1
# [39] = biological target: Neu5Ac(a2-3)Gal(b1-4)GlcNAc(b1-3)Gal(b1-4)GlcNAc(b1-3)Gal(b1-4)GlcNAc
# Procedure, shortened: as §1
# [40] = biological target: Neu5Ac(a2-3)Gal(b1-4)GlcNAc(b1-3)Gal(b1-4)GlcNAc(b1-3)Gal(b1-4)GlcNAc(b1-2)Man(a1-3)[Neu5Ac(a2-3)Gal(b1-4)GlcNAc(b1-3)Gal(b1-4)GlcNAc(b1-3)Gal(b1-4)GlcNAc(b1-2)Man(a1-6)]GalNAc
# Procedure, shortened: as §1
# [41] = biological target: Neu5Ac(a2-3)Gal(b1-4)GlcNAc(b1-3)Gal(b1-4)GlcNAc(b1-3)GalNAc
# Procedure, shortened: as §1
# [42] = biological target: Neu5Ac(a2-3)Gal(b1-4)GlcNAc(b1-3)Gal(b1-4)GlcNAc(b1-3)[Neu5Ac(a2-3)Gal(b1-4)GlcNAc(b1-3)Gal(b1-4)GlcNAc(b1-6)]GalNAc
# Procedure, shortened: as §1
# [43] = biological target: Neu5Ac(a2-3)Gal(b1-4)GlcNAc(b1-3)Gal(b1-4)GlcNAc(b1-6)[Gal(b1-3)]GalNAc
# Procedure, shortened: as §1
# [44] = biological target: Neu5Ac(a2-3)Gal(b1-4)GlcNAc(b1-3)Gal(b1-4)[Fuc(a1-3)]GlcNAc
# Procedure, shortened: as §1
# [45] = biological target: Neu5Ac(a2-3)Gal(b1-4)GlcNAc(b1-3)GalNAc
# Procedure, shortened: as §1
binder,measurement,setting,value
B1,glycan array binding signal (z-score),[1],-1.31
same,glycan array binding signal (z-score),[2],-0.295
same,glycan array binding signal (z-score),[3],-0.328
same,glycan array binding signal (z-score),[4],-0.884
same,glycan array binding signal (z-score),[5],0.667
same,glycan array binding signal (z-score),[6],-0.528
same,glycan array binding signal (z-score),[7],-0.112
same,glycan array binding signal (z-score),[8],-0.286
same,glycan array binding signal (z-score),[9],0.03
same,glycan array binding signal (z-score),[10],-0.263
same,glycan array binding signal (z-score),[11],-0.652
same,glycan array binding signal (z-score),[12],6.11
same,glycan array binding signal (z-score),[13],0.438
same,glycan array binding signal (z-score),[14],-0.139
same,glycan array binding signal (z-score),[15],-0.225
same,glycan array binding signal (z-score),[16],0.075
same,glycan array binding signal (z-score),[17],-0.001
same,glycan array binding signal (z-score),[18],0.289
same,glycan array binding signal (z-score),[19],0.176
same,glycan array binding signal (z-score),[20],-0.008
same,glycan array binding signal (z-score),[21],0.859
same,glycan array binding signal (z-score),[22],1.18
same,glycan array binding signal (z-score),[23],0.566
same,glycan array binding signal (z-score),[24],0.023
same,glycan array binding signal (z-score),[25],-0.662
same,glycan array binding signal (z-score),[26],0.399
same,glycan array binding signal (z-score),[27],0.365
same,glycan array binding signal (z-score),[28],-0.142
same,glycan array binding signal (z-score),[29],-0.039
same,glycan array binding signal (z-score),[30],-0.117
same,glycan array binding signal (z-score),[31],0.65
same,glycan array binding signal (z-score),[32],0.048
same,glycan array binding signal (z-score),[33],-0.534
same,glycan array binding signal (z-score),[34],0.003
same,glycan array binding signal (z-score),[35],0.155
same,glycan array binding signal (z-score),[36],0.45
same,glycan array binding signal (z-score),[37],-0.551
same,glycan array binding signal (z-score),[38],-0.132
same,glycan array binding signal (z-score),[39],-0.421
same,glycan array binding signal (z-score),[40],-0.117
same,glycan array binding signal (z-score),[41],1.52
same,glycan array binding signal (z-score),[42],0.133
same,glycan array binding signal (z-score),[43],-0.349
same,glycan array binding signal (z-score),[44],-0.54
same,glycan array binding signal (z-score),[45],0.669

# Three entries from above, reformatted.
binder | measurement | setting | value
B1 | glycan array binding signal (z-score) | [13] | 0.438
same | glycan array binding signal (z-score) | [36] | 0.45
same | glycan array binding signal (z-score) | [42] | 0.133
